Results are given in words; binding and its absence hold for the method and conditions named. Binding seen in cells or lysates may run through a third protein. These calls come from enrichment with a bait or labelling near it, and not all partners need be listed. Tags and fused reporters may be left off the sequences shown.
Target: T1, HA-Flag-Fbxw8 (human) (UniProt Q8N3Y1)
T1 sequence: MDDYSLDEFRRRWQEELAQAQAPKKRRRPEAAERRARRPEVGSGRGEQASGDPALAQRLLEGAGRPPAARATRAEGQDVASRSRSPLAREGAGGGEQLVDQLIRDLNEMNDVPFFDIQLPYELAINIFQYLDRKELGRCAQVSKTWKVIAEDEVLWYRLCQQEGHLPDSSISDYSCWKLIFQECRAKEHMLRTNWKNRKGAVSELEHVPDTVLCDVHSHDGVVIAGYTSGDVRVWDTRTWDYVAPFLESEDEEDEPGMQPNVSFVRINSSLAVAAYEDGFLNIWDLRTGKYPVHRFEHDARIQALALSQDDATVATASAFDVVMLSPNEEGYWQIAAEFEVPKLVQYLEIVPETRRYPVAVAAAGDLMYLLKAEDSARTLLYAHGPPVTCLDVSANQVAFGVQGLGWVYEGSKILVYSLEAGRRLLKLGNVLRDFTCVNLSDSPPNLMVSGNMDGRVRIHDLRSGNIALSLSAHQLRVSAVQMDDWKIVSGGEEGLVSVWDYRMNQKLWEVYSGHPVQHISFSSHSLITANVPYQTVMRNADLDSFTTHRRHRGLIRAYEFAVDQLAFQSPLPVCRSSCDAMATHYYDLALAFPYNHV
Assay: affinity purification with mass spectrometry; lysates of 293T cells expressing HA-Flag-Fbxw8 (50 mM Tris-HCl pH 7.5, 150 mM NaCl, 0.5% Nonidet P40) immunoprecipitated with anti-HA resin, eluted with HA peptide, LC-MS/MS; CompPASS scoring of HCIPs

By UniProt entry, the sequences of proteins in these tests, tags left out.
UniProt Q14999: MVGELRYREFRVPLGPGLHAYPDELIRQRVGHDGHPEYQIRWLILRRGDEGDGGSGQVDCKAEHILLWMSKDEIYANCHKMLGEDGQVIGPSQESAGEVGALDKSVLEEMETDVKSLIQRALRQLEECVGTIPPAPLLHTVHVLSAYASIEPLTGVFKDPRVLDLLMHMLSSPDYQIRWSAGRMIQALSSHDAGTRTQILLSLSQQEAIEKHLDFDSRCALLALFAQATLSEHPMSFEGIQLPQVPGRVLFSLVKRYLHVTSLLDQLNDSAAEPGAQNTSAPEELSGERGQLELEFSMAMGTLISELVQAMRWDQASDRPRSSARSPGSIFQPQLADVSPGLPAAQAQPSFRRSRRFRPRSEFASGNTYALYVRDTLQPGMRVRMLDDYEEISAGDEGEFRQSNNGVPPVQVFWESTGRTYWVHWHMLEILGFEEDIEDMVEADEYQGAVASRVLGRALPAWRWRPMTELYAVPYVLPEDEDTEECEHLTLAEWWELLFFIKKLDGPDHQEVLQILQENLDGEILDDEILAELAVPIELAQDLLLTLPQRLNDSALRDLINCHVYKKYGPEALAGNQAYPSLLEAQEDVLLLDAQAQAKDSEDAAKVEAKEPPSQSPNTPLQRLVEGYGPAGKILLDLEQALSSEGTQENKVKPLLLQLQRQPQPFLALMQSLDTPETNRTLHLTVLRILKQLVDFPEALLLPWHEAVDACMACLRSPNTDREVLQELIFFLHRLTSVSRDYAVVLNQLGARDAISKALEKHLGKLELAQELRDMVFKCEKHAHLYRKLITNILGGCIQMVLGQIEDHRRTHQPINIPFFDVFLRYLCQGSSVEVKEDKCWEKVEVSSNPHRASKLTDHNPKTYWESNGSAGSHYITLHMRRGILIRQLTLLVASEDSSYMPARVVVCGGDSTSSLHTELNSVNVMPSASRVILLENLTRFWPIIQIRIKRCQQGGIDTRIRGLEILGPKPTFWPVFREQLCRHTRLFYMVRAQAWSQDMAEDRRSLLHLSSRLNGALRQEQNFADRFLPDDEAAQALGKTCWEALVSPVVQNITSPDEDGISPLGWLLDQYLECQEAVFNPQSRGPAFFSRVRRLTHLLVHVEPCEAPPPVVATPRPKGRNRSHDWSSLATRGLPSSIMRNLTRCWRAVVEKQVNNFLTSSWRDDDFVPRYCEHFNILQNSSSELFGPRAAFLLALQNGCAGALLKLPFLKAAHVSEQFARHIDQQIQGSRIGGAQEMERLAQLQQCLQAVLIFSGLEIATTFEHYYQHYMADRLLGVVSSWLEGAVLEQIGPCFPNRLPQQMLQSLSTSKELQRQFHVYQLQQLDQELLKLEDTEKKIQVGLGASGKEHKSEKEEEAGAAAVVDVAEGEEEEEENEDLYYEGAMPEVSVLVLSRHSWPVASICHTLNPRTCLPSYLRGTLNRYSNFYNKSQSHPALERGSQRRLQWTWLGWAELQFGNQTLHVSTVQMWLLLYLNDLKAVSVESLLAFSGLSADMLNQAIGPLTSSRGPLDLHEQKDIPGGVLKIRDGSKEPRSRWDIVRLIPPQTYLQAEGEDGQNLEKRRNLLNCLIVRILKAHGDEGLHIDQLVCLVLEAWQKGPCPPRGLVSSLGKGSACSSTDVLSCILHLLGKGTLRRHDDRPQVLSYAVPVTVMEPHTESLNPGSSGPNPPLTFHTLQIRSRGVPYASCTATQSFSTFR
UniProt O75147: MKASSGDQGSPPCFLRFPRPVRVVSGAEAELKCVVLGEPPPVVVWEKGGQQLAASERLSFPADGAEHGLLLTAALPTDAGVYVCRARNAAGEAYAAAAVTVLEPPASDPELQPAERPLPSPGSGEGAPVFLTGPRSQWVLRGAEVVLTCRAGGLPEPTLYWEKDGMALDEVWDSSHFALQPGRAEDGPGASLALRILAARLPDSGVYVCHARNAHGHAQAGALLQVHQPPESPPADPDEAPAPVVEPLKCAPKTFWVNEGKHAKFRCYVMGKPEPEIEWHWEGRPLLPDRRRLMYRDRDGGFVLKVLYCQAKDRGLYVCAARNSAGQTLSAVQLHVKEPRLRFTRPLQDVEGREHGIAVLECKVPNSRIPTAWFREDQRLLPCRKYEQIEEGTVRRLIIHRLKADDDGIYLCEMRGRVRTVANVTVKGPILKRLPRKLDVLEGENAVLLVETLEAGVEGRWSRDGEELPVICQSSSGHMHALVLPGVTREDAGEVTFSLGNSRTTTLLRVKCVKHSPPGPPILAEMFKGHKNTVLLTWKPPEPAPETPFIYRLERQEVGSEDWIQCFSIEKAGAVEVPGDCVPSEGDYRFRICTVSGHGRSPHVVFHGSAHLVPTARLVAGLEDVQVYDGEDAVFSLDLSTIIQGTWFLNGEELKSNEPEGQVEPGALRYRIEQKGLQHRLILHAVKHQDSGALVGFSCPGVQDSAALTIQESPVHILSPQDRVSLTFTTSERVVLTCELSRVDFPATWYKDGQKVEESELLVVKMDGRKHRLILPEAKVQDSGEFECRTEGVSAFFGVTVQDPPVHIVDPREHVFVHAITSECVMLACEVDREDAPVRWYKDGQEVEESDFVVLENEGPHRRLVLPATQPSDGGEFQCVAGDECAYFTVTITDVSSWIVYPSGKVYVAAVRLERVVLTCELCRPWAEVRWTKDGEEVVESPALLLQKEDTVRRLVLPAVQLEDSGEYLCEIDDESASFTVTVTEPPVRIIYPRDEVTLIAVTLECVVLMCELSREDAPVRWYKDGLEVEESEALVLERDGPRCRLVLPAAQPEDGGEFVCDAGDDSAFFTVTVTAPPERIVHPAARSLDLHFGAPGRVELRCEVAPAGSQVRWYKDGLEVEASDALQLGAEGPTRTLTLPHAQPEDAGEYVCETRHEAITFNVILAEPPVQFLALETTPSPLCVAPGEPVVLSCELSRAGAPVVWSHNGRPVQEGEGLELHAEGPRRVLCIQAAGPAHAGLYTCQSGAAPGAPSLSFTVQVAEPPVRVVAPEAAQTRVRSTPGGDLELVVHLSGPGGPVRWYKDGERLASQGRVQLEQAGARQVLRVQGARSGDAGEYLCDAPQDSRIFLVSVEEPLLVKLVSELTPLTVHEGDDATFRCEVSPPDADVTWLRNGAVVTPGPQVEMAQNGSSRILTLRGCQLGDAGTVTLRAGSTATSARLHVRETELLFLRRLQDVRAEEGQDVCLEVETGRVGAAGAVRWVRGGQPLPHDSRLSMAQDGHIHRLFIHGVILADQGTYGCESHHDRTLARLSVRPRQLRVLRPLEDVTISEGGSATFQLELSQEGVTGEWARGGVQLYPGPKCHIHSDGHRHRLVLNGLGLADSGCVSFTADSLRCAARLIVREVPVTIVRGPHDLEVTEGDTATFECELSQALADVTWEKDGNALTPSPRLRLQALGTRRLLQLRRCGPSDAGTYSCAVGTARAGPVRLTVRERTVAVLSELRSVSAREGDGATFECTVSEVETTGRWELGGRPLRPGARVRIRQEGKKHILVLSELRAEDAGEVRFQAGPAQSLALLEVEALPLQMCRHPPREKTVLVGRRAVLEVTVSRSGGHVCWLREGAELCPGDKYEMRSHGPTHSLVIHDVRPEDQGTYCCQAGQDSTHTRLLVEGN
UniProt P63208: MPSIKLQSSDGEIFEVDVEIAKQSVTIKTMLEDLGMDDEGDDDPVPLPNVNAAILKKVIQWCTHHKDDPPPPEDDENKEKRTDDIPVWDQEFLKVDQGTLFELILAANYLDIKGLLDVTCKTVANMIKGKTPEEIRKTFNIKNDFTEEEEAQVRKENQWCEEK

Row | binding | Substance
1 | binds | Cul7 (endogenous, 293T) (from UniProt Q14999 1-1698)
2 | binds | OBSL1 (endogenous, 293T) (from UniProt O75147 1-1896)
3 | binds | Skp1A (endogenous, 293T) (from UniProt P63208 1-163)
